Laboratory results reported in US20260218202.

Sequences of proteins named here, by UniProt entry; tags and fusion partners are left off. Residues count along the entry.
UniProt O00206, 24-839: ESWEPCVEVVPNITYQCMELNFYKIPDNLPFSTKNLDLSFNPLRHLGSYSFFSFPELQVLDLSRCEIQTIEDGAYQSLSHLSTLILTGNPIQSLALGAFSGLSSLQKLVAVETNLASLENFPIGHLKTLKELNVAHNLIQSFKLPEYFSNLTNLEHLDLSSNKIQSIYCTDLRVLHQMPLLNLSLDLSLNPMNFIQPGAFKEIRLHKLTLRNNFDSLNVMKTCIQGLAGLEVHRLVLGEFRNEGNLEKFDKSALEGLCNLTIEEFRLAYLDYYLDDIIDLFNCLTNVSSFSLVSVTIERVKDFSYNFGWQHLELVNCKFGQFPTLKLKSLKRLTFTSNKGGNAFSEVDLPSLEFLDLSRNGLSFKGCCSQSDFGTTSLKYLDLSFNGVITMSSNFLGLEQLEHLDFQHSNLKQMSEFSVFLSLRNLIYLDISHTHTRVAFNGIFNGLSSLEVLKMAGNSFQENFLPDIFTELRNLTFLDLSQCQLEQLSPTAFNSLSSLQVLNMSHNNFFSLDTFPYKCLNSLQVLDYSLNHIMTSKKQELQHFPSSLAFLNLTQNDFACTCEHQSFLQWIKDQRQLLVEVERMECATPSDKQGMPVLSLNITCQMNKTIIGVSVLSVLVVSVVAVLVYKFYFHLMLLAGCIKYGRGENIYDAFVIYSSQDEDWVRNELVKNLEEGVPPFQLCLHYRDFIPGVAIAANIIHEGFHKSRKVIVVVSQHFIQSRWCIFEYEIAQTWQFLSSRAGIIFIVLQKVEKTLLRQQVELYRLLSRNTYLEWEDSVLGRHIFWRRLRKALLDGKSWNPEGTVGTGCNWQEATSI

What was measured:
[1] = target: TLR4 (human, co-expressed with MD-2 and CD14) (Homo sapiens) (UniProt O00206); assay: activity in cells; settings: protein on the cell surface, protein details: HEK-Blue hTLR4 cells, InvivoGen Hkb-htlr4, single-stranded DNA, variant of ApTOLL (ApTLR#4FT, 4F-T)
[2] = target: TLR4 (human, co-expressed with MD-2 and CD14) (Homo sapiens) (UniProt O00206); assay: competition with a labelled probe; settings: equimolar 100 nM with ApTOLL-Dig, protein on the cell surface, protein details: HEK-Blue hTLR4 cells, InvivoGen Hkb-htlr4, single-stranded DNA, variant of ApTOLL (ApTLR#4FT, 4F-T)
[3] = TLR4 antagonist comparable to ApTOLL, concentration dependent (20, 200 nM)

Row | Sequence | functional effect of the aptamer ([1]; TLR4 antagonist, not concentration dependent (20, 200 nM)) | functional effect of the aptamer [1, 3] | binding result [2] | binding result ([2]; lowest of the mutants)
1 | CCTGTGCCAATAAAGGATACCGCCGCGTTAGCATGTACTCGGTTGGCCCAAATACGAG [ApTOLL-Mut 4] | active |  |  | 
2 | CCTGTGCCAATAAAGGATACCGCCGCGTTAGCATGTACTCGGTTGGCCCTAAATACGAG [ApTOLL-Mut 1] |  | active |  | 
3 | TCCTGTGCCAATAAAGGATACCGCCGCGTTAGCATGTACTCGGTTGGCCCTAAATACGAG [ApTOLL-Mut 3] |  | active | binds | 
4 | GGTGTGCCAATAAACCATACCGCCGCGTTAGCATGTACCTGGTTGGCCCCAAATACAGG [ApTOLL-Mut 6] |  | active |  | 
5 | GGTGTGCCAATAAACCATATCGCCGCGTTAGCATGTACAGGGTTGGCCCCAAATACCTG [ApTOLL-Mut 2] |  | active |  | binds
6 | TCCTGTGCCAATAAAGGATACCGCCGCGTTAGCATGTACTCGGTTGGCCCTAAATACGAGT [ApTOLL-Mut 5] |  | active | binds | 

For part of these data: At least one result comes from cells or an extract, where the contact may be indirect.
